This is an account of results in US20030235860A1, “Interactions between AR, ER, TR2, and TR4” (priority 1999, published 2003).

Sequences of proteins named here, by UniProt entry; tags and fusion partners are left off. A change or cut given only in a name is not applied to a line headed by its entry.
UniProt Q13772: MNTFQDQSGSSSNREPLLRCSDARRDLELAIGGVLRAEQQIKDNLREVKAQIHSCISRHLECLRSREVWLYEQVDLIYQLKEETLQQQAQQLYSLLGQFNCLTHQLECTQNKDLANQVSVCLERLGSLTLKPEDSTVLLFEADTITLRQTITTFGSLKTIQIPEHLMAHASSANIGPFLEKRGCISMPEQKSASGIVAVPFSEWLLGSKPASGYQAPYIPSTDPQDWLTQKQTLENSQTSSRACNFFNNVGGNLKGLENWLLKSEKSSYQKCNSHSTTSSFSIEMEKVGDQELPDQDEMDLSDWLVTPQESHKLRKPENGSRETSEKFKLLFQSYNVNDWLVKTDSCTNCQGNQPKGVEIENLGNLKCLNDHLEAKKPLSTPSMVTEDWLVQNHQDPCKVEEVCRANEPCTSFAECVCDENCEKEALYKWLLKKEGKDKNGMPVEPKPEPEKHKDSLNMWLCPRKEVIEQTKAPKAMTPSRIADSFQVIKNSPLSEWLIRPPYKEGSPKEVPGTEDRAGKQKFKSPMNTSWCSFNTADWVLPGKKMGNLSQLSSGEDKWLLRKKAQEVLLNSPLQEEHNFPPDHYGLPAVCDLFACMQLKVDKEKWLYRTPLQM
UniProt P03372: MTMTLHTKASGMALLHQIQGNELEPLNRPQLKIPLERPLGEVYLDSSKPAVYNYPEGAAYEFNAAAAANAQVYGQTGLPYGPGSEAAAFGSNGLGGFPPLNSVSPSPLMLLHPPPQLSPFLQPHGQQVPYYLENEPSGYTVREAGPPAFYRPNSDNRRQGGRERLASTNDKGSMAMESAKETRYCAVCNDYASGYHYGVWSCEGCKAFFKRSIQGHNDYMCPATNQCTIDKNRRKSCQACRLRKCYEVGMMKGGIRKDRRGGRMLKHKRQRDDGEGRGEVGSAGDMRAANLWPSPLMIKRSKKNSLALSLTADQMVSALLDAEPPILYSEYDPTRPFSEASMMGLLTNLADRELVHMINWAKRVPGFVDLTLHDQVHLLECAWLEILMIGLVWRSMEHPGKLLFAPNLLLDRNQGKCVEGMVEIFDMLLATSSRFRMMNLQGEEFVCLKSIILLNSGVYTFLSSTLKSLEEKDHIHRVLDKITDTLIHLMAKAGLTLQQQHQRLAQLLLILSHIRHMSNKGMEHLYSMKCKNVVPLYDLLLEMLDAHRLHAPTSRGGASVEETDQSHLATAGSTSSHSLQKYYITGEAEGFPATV

No constants are given. Whether binding was seen depends on the method and setting. Binding seen in cells or lysates may run through a third protein. Some entries that bind do so weakly or less than the wild type. For some of these results: Where a sequence is shown, tags or fusion partners need not be part of it.

Assay [1] has as its target T1, GST-TR4 fusion protein (human) (UniProt P49116).
T1 sequence: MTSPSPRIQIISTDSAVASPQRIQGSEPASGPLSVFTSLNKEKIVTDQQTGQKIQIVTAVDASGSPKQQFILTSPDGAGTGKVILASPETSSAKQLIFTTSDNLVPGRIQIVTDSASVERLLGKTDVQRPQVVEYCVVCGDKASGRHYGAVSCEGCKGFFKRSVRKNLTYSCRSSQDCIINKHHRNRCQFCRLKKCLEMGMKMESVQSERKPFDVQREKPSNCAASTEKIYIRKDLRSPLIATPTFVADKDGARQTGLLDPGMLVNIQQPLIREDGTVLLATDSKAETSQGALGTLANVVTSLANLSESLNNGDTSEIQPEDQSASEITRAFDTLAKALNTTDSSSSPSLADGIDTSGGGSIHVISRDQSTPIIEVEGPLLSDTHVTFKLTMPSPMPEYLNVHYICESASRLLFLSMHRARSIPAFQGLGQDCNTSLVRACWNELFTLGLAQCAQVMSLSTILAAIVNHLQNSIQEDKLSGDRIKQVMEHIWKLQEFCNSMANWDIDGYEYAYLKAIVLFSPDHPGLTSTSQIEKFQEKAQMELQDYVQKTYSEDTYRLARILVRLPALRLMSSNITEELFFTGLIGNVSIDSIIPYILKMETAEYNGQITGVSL
In words: GST pull-down, GST-TR4 on beads.

Assay [2] addresses T1, GST-TR4 fusion protein (human). Kind of assay: GST pull-down, GST-TR4 on beads (figure legend).
A further assay deals with ARA70 (UniProt Q13772). In words: GST pull-down assay and mammalian two-hybrid assay.
Assay [3] concerns the target T2, TR4 orphan receptor (TR4), full-length (human) (UniProt P49116).
T2 sequence: T1 sequence
Kind of assay: GST pull-down, GST-ER-LBD on beads, [35S]-TR4, with or without 1 µM E2.

As to “estrogen receptor (ER), full-length (from UniProt P03372 1-595)”, the binding result (in assay [1]; in assay [2]; with ARA70) was “binds” throughout.
For “GST-ER-#3 (aa 312-595 of ER) (from UniProt P03372 312-595)”, the binding entry in assay [3] is given as “binds”.
